Assay results from PubChem BioAssay AID624297 (National Center for Advancing Translational Sciences (NCATS), 2012).
Among all 340,000 compounds or so, about 6,200 (1.8%) were called active. Inconclusive results, whose numbers are uncertain, are shown with a selection of clear calls. Calls come from the whole dose curve; as a rule, active = well fitted activation curve with a large enough effect; inconclusive = small, poorly fitted or top-dose-only effect; inactive = no such curve, though single readings can be large or run the other way. Potencies beside an inconclusive call are fits to weak or partial responses and may not hold up.

assay: A quantitative high throughput screen for small molecules that induce DNA re-replication in SW480 colon adenocarcinoma cells.; note: nearly all actives have a fitted effect of over 55% in size; for re-replication activation: % of control where 0% means no effect; settings: Hoechst DNA content imaging, 48 h; re-replication activation: at 46.1 µM (top of the series) unless noted
Outline: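 250 cells/well; 23 nL cpd via pin tool; 48 hr, 37 C, 5% CO2; Hoechst 40 min; imager read of total nuclear intensity, ex 405/em 500-530 nm.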
Potency is the fitted concentration of half-maximal effect.

| Compound | Potency | re-replication activation |
| --- | --- | --- |
| CCOC(=O)N1CCN(C(=O)CNCc2cccs2)CC1 | inactive |  |
| CSc1nc2ccc3nc(NC(=O)C4COc5ccccc5O4)sc3c2s1 (stereo not drawn) | inactive |  |
| CC1=NOC(=O)/C1=C\c1ccc(-c2ccc(Cl)cc2Cl)o1 | inconclusive: 29.1 µM [activator, single point] |  |
| CC(=O)N1CC=C2C(C#N)=C(N)C(C#N)(C#N)C(CCc3ccccc3)C2C1 (stereo not drawn) | inactive |  |
| Cc1nc(NC2=NCN(CCCN3CCOCC3)CN2)nc2c(C)cccc12 | inconclusive: 11.2 µM [activator, partial curve] |  |
| O=C(COC(=O)c1cncc(Br)c1)Nc1ccc2c(c1)OCO2 | inconclusive: 29.1 µM [activator, single point] |  |
| COCCN(C(=O)c1cc(S(=O)(=O)N2CCCCC2)ccc1Cl)c1c(N)n(CC(C)C)c(=O)[nH]c1=O | inactive |  |
| N#Cc1ccccc1NC(=O)CN(Cc1ccccc1)Cc1ccccc1 | inconclusive: 23.1 µM [activator, single point] |  |
| CCOc1ccc(N2C(=O)CC(Sc3nnnn3-c3ccccc3)C2=O)cc1 (stereo not drawn) | active: 16.4 µM |  |
| COCc1cc(S(=O)c2ccc(Cl)cc2)nc(C)n1 (stereo not drawn) | inconclusive: 9.2 µM [activator, partial curve, poor fit] |  |
| OC(c1ccccn1)(c1ccccn1)c1ccccn1 | inconclusive: 29.1 µM [activator, partial curve, poor fit] |  |
| CCCN1Cc2cccc(C(=O)Nc3ccc(CN4CCCC4)cc3)c2C1=O | inconclusive: 29.1 µM [activator, partial curve, poor fit] |  |
| COc1cccc(-c2c(C(=O)N/N=C(\C)c3ccco3)nnn2-c2nonc2N)c1 |  | inconclusive: 70% [activator] |
| C=CCc1ccc(OCC(O)COc2ccc(CC=C)cc2OC)c(OC)c1 | inconclusive: 29.1 µM [activator, single point] |  |
| COCCN(CCOC)S(=O)(=O)c1ccc(C(=O)Nc2nnc(CSC)o2)cc1 | inactive |  |
| C=C(C)CNC(=S)NNC(=O)CCn1c2ccccc2c2ccccc21 | inconclusive: 23.1 µM [activator, partial curve, poor fit] |  |
| Cc1c(C(=O)Nc2ccc3oc(-c4cccnc4)nc3c2)oc2ccccc12 | active: 20.6 µM |  |
| Cc1cc2nc(SCC(=O)Nc3ccccc3C(=O)O)[nH]c2cc1C | inactive |  |
| COc1ccc(NC(=O)CN(C)C(=O)c2ccc(-c3ccccc3Cl)o2)cc1 | inconclusive: 0.092 µM [activator, full curve, poor fit] |  |
| CCOC(=O)N1CCN(C(=O)c2cc(COc3cccc(C(C)=O)c3)on2)CC1 | inactive |  |
| COc1cc(SC)ccc1C(=O)N1CCN(c2ccccc2OC)CC1 | inconclusive: 23.1 µM [activator, partial curve, poor fit] |  |
| COC(=O)c1ccc(N2CCN(CCNC(=O)Nc3ccc(OC)cc3)CC2)cc1 |  | inconclusive: 142% [activator] |

| Compound | Potency | re-replication activation |
| --- | --- | --- |
| N#CCOc1ccccc1CNC[C@H]1O[C@@H](n2cnc(C(N)=O)n2)[C@H](O)[C@@H]1O | inactive |  |
| O=C(COC(=O)c1ccccc1Br)Nc1cc(S(=O)(=O)N2CCOCC2)ccc1N1CCCC1 | inconclusive: 0.461 µM [activator, partial curve, poor fit] |  |
| CCN1CCc2c(OCC(=O)Nc3ccc(C)cc3)cccc2C1=O | inactive |  |
| CSCCC1C(C#N)=C(N)Oc2n[nH]c(-c3cccs3)c21 (stereo not drawn) | inconclusive: 20.6 µM [activator, partial curve, poor fit] |  |
| CCCCOc1ccc(C(=O)Nc2ccc(CN3CCOCC3)cc2)cc1 | inconclusive: 14.6 µM [activator, single point] |  |
| CC(=O)N(C)Cc1ccc(C(=O)CCl)cc1 | inconclusive: 3.66 µM [activator, full curve, poor fit] |  |
| Brc1ccc2c(c1)[C@H]1OCC[C@H]1[C@@H](c1cccs1)N2 | inconclusive: 29.1 µM [activator, single point] |  |
| CCCCN(C(=O)C1CC1)C1CCS(=O)(=O)C1 (stereo not drawn) | inactive |  |
| COc1cccc(C=NNc2nc3ccccc3s2)c1OC | inconclusive: 20.6 µM [activator, single point] |  |
| CC1CCCN(S(=O)(=O)c2ccc(NC(=O)Cn3nnc(-c4ccccc4F)n3)cc2)C1 (stereo not drawn) | inconclusive: 29.1 µM [activator, single point] |  |
| O=C(Nc1nnc(-c2cccs2)o1)c1cc(-c2ccccc2)nc2ccccc12 | inconclusive: 29.1 µM [activator, single point] |  |
| O=[N+]([O-])c1ccc(N2CCN(S(=O)(=O)c3ccc(Cl)cc3)CC2)cc1NCc1cccnc1 |  | inactive: 8.9% [at 9.22 µM] |
| CCOC(=O)CC(NS(=O)(=O)c1ccc2[nH]cc(C(=O)O)c(=O)c2c1)c1ccc(OCC)c(OC)c1 (stereo not drawn) | inconclusive: 1.58 µM [activator, partial curve, poor fit] |  |
| CC(C(=O)N1CCCCC1)N1CCN(S(=O)(=O)c2ccc(Cl)cc2)CC1 (stereo not drawn) | inactive |  |
| Cc1nc(NCC2CCCO2)[nH]c(=O)c1CCC(C)C (stereo not drawn) | inconclusive: 8.2 µM [activator, partial curve, poor fit] |  |
| COC(=O)c1c(NC(NC(=O)CC(C)C)C(Cl)(Cl)Cl)sc2c1CCC2 (stereo not drawn) | inconclusive: 11.6 µM [activator, partial curve, poor fit] |  |
| C=CC[C@H](CC(=O)N(CCO)Cc1ccccc1)C(=O)N[C@@H](COC(=O)[C@@H](CC=C)Cc1ccc(F)cc1)Cc1c[nH]c2ccccc12 | active: 20.6 µM |  |
| CCn1ncc(/C=N\NC(=O)c2cc(-c3ccc(C)cc3C)nc3ccccc23)c1C | inconclusive: 29.1 µM [activator, single point] |  |
| O=c1c2ccccc2sc2c(CO)ccc(NCCN3CCCCC3)c12 | inconclusive: 29.1 µM [activator, single point] |  |
| O=C(O)Cn1nc(-c2ccccc2)cc1-c1ccccc1 | inconclusive: 18.4 µM [activator, single point] |  |
| CCOC(=O)c1cc(S(=O)(=O)NC2CCN(C(=O)OCC)CC2)cn1C | inconclusive: 2.59 µM [activator, partial curve] |  |

Quoted from the listing:
Value of `OC(c1ccccn1)(c1ccccn1)c1ccccn1` under Potency: inconclusive: 29.1 µM [activator, partial curve, poor fit]
Value of `CCn1ncc(/C=N\NC(=O)c2cc(-c3ccc(C)cc3C)nc3ccccc23)c1C` under Potency: inconclusive: 29.1 µM [activator, single point]
Value of `CSCCC1C(C#N)=C(N)Oc2n[nH]c(-c3cccs3)c21` (stereo not drawn) under Potency: inconclusive: 20.6 µM [activator, partial curve, poor fit]
